# Measurements taken from the supplement of paper PMC6411743.
# ± gives the standard deviation of the averaged measurements. The list shows a part of the results.
# Legend:
# Experiment in all cases: NP40-soluble protein abundance relative to vehicle (solubility fold change) (ratio); higher = more soluble protein in presence of GTP
# CWF19L2 = biological target: T1, CWF19L2 (UniProt Q2TBE0)
# T1 sequence (whole entry): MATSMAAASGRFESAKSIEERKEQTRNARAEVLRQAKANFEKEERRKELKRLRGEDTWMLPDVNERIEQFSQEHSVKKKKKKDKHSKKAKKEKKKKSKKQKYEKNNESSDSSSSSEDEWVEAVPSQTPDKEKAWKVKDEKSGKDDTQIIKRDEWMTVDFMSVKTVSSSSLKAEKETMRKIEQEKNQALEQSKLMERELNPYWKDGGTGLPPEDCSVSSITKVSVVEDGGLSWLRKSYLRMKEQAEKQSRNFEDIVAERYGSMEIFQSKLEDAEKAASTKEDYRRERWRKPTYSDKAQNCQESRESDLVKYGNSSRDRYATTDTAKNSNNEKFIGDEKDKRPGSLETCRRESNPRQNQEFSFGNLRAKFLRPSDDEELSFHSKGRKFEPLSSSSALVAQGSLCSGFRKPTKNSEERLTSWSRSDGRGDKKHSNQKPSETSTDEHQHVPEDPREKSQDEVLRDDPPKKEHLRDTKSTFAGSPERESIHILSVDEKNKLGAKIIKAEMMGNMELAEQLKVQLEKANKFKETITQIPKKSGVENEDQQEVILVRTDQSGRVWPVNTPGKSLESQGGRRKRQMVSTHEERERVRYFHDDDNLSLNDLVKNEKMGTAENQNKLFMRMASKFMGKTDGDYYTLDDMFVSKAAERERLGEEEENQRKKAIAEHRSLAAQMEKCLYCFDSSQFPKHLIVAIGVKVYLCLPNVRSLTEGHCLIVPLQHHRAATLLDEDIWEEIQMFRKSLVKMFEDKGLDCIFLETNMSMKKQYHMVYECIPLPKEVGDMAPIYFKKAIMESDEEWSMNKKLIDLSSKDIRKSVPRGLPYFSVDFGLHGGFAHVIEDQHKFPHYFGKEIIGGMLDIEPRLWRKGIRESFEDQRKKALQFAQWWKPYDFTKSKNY
# Summary of the method: (§1)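 Eight concentrations, 0.1 to 10 mM, were tested on Jurkat crude lysate for 10 min at room temperature and then 3 min at 37 °C, in three independent experiments. The lysate was solubilised with 0.8% NP40 and benzonase, ultracentrifuged, and the supernatant TMT-labelled for LC-MS/MS. Each value is the fold change against the detergent-processed vehicle in its own replicate, from vsn-normalised intensities.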
# LDLRAP1 = biological target: T2, LDLRAP1 (UniProt Q5SW96)
# T2 sequence (whole entry): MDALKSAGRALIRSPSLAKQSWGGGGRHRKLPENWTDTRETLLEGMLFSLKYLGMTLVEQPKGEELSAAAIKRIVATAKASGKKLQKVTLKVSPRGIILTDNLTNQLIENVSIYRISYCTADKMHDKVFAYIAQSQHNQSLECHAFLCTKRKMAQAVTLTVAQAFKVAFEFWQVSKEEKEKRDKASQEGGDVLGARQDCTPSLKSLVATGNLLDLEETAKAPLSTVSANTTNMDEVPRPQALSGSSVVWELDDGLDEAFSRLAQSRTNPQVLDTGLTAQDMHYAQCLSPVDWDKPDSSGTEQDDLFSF
# Summary of the method: as §1
# PSMD6 = biological target: T3, PSMD6 (UniProt Q15008)
# T3 sequence (whole entry): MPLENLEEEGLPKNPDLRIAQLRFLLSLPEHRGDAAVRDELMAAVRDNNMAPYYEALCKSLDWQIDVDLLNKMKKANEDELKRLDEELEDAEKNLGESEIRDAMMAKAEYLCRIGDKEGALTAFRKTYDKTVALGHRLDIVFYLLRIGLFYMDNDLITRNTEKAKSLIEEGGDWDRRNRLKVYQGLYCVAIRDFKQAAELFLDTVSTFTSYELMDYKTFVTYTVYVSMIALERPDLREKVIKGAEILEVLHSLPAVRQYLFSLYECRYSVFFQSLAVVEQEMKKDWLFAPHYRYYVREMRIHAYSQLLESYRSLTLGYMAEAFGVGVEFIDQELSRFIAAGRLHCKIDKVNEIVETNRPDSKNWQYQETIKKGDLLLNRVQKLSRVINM
# Summary of the method: as §1
# [1] = biological target: T4, Q5T123 and related entries (UniProt Q9H299)
# T4 sequence (whole entry): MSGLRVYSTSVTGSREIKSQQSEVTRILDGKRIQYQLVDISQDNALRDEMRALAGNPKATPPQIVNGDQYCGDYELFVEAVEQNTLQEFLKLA
# Summary of the method: as §1
# RABL3 = biological target: T5, RABL3 (UniProt Q5HYI8)
# T5 sequence (whole entry): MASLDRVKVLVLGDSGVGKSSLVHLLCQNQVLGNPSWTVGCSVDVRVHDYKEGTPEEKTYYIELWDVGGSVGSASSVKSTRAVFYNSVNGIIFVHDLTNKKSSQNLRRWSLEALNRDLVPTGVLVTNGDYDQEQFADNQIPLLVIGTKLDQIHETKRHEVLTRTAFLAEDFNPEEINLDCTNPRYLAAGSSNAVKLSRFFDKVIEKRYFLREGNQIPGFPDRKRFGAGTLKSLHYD
# Summary of the method: as §1
# RCN1 = biological target: T6, RCN1 (UniProt Q15293)
# T6 sequence (whole entry): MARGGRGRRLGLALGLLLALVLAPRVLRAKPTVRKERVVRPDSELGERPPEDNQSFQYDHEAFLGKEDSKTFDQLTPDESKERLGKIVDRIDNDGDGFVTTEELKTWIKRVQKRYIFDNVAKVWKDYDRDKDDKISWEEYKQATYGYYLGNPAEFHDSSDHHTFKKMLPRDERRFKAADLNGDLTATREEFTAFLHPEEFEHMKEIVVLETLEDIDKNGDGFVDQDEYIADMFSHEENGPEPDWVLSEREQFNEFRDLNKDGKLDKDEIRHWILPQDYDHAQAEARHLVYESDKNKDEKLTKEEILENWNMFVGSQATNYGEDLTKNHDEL
# Summary of the method: as §1
# TTF1 = biological target: T7, TTF1 (UniProt Q15361)
# T7 sequence (whole entry): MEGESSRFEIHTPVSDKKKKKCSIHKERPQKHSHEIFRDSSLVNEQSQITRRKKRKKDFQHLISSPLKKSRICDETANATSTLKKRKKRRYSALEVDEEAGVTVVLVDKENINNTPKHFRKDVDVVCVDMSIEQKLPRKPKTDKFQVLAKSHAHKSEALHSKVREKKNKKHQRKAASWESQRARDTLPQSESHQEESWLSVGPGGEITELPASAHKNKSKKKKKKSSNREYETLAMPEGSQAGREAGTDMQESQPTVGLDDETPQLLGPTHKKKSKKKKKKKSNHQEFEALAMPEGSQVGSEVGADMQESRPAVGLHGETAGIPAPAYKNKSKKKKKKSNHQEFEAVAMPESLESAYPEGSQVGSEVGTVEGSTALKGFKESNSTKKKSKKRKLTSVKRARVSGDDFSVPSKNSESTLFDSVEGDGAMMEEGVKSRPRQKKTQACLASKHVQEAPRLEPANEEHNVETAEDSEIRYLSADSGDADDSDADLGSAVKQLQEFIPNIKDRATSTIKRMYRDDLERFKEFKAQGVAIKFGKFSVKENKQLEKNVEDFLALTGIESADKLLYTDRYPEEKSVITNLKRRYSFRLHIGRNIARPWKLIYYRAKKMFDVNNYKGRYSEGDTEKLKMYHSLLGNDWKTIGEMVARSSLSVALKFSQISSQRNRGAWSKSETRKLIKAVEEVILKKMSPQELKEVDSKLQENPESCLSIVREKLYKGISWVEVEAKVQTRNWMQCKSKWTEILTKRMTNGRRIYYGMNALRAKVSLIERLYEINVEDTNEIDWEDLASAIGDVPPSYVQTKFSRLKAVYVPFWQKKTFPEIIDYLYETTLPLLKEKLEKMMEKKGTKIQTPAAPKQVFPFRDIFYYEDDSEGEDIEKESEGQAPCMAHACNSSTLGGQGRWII
# Summary of the method: as §1
structure (smiles),measurement,setting,value
Nc1nc2c(ncn2[C@@H]2O[C@H](COP(=O)(O)OP(=O)(O)OP(=O)(O)O)[C@@H](O)[C@H]2O)c(=O)[nH]1 [guanosine triphosphate],NP40-soluble protein abundance,CWF19L2; concentration: 0.1mM,0.995 ± 0.02
same,NP40-soluble protein abundance,CWF19L2; concentration: 0.5mM,1.02 ± 0.029
same,NP40-soluble protein abundance,CWF19L2; concentration: 1mM,1.03 ± 0.022
same,NP40-soluble protein abundance,CWF19L2; concentration: 2mM,1.06 ± 0.05
same,NP40-soluble protein abundance,CWF19L2; concentration: 4mM,1.06 ± 0.022
same,NP40-soluble protein abundance,CWF19L2; concentration: 6mM,1.09 ± 0.027
same,NP40-soluble protein abundance,CWF19L2; concentration: 8mM,1.11 ± 0.077
same,NP40-soluble protein abundance,CWF19L2; concentration: 10mM,1.1 ± 0.096
same,NP40-soluble protein abundance,LDLRAP1; concentration: 0.1mM,0.99 ± 0.097
same,NP40-soluble protein abundance,LDLRAP1; concentration: 0.5mM,0.912 ± 0.072
same,NP40-soluble protein abundance,LDLRAP1; concentration: 1mM,0.876 ± 0.1
same,NP40-soluble protein abundance,LDLRAP1; concentration: 2mM,0.798 ± 0.15
same,NP40-soluble protein abundance,LDLRAP1; concentration: 4mM,0.91 ± 0.12
same,NP40-soluble protein abundance,LDLRAP1; concentration: 6mM,0.854 ± 0.15
same,NP40-soluble protein abundance,LDLRAP1; concentration: 8mM,0.925 ± 0.066
same,NP40-soluble protein abundance,LDLRAP1; concentration: 10mM,0.866 ± 0.0087
same,NP40-soluble protein abundance,PSMD6; concentration: 0.1mM,1.01 ± 0.016
same,NP40-soluble protein abundance,PSMD6; concentration: 0.5mM,1.03 ± 0.059
same,NP40-soluble protein abundance,PSMD6; concentration: 1mM,1.02 ± 0.06
same,NP40-soluble protein abundance,PSMD6; concentration: 2mM,1.05 ± 0.11
same,NP40-soluble protein abundance,PSMD6; concentration: 4mM,1.04 ± 0.096
same,NP40-soluble protein abundance,PSMD6; concentration: 6mM,1.04 ± 0.13
same,NP40-soluble protein abundance,PSMD6; concentration: 8mM,1.04 ± 0.12
same,NP40-soluble protein abundance,PSMD6; concentration: 10mM,1 ± 0.12
same,NP40-soluble protein abundance,[1]; concentration: 0.1mM,0.93 ± 0.058
same,NP40-soluble protein abundance,[1]; concentration: 0.5mM,0.968 ± 0.08
same,NP40-soluble protein abundance,[1]; concentration: 1mM,0.903 ± 0.063
same,NP40-soluble protein abundance,[1]; concentration: 2mM,0.896 ± 0.058
same,NP40-soluble protein abundance,[1]; concentration: 4mM,0.869 ± 0.085
same,NP40-soluble protein abundance,[1]; concentration: 6mM,0.914 ± 0.05
same,NP40-soluble protein abundance,[1]; concentration: 8mM,0.924 ± 0.082
same,NP40-soluble protein abundance,[1]; concentration: 10mM,0.946 ± 0.034
same,NP40-soluble protein abundance,RABL3; concentration: 0.1mM,1.01 ± 0.015
same,NP40-soluble protein abundance,RABL3; concentration: 0.5mM,1.04 ± 0.016
same,NP40-soluble protein abundance,RABL3; concentration: 1mM,0.975 ± 0.022
same,NP40-soluble protein abundance,RABL3; concentration: 2mM,0.954 ± 0.026
same,NP40-soluble protein abundance,RABL3; concentration: 4mM,0.9429 ± 0.0067
same,NP40-soluble protein abundance,RABL3; concentration: 6mM,0.985 ± 0.016
same,NP40-soluble protein abundance,RABL3; concentration: 8mM,0.979 ± 0.04
same,NP40-soluble protein abundance,RABL3; concentration: 10mM,0.923 ± 0.011
same,NP40-soluble protein abundance,RCN1; concentration: 0.1mM,0.906 ± 0.014
same,NP40-soluble protein abundance,RCN1; concentration: 0.5mM,0.882 ± 0.023
same,NP40-soluble protein abundance,RCN1; concentration: 1mM,0.954 ± 0.033
same,NP40-soluble protein abundance,RCN1; concentration: 2mM,0.927 ± 0.063
same,NP40-soluble protein abundance,RCN1; concentration: 4mM,0.909 ± 0.044
same,NP40-soluble protein abundance,RCN1; concentration: 6mM,0.921 ± 0.051
same,NP40-soluble protein abundance,RCN1; concentration: 8mM,0.895 ± 0.067
same,NP40-soluble protein abundance,RCN1; concentration: 10mM,0.908 ± 0.028
same,NP40-soluble protein abundance,TTF1; concentration: 0.1mM,1.12 ± 0.033
same,NP40-soluble protein abundance,TTF1; concentration: 0.5mM,1.06 ± 0.084
same,NP40-soluble protein abundance,TTF1; concentration: 1mM,1.09 ± 0.015
same,NP40-soluble protein abundance,TTF1; concentration: 2mM,1.08 ± 0.045
same,NP40-soluble protein abundance,TTF1; concentration: 4mM,1.09 ± 0.075
same,NP40-soluble protein abundance,TTF1; concentration: 6mM,1.03 ± 0.019
same,NP40-soluble protein abundance,TTF1; concentration: 8mM,1.02 ± 0.084
same,NP40-soluble protein abundance,TTF1; concentration: 10mM,1.01 ± 0.068

# 3 entries from above, as tab-separated lines.
structure (smiles)	measurement	setting	value
Nc1nc2c(ncn2[C@@H]2O[C@H](COP(=O)(O)OP(=O)(O)OP(=O)(O)O)[C@@H](O)[C@H]2O)c(=O)[nH]1 [guanosine triphosphate]	NP40-soluble protein abundance	PSMD6; concentration: 0.1mM	1.01 ± 0.016
same	NP40-soluble protein abundance	PSMD6; concentration: 0.5mM	1.03 ± 0.059
same	NP40-soluble protein abundance	PSMD6; concentration: 1mM	1.02 ± 0.06
